These are yes or no findings as the source states them, for the method shown. Binding seen in cells or lysates may run through a third protein. Some binding calls cover weakened binding; strength is not graded here.

Amino acid sequences for entries named in this document (tags omitted).
UniProt P17844: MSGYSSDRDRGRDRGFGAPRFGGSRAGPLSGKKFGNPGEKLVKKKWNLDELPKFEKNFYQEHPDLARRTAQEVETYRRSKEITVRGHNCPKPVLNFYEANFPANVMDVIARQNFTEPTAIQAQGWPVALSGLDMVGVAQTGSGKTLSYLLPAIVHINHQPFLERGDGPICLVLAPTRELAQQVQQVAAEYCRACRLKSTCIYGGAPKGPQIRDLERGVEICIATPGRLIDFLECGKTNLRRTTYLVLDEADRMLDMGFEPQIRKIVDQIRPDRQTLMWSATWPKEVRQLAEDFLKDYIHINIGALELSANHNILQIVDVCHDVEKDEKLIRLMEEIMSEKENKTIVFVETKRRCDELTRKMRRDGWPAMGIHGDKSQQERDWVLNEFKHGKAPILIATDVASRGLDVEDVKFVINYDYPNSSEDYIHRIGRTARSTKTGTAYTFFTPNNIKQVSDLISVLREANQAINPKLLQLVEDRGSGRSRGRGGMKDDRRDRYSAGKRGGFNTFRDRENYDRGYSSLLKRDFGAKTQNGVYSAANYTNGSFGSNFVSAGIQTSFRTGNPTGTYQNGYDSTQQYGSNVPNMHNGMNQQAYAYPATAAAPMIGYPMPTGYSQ

This assay addresses p68 (human (endogenous in HEC-1B and HEC-50)) (UniProt P17844). Nature of the assay: co-IP; immunoprecipitation from p53-null HEC-50 cells after transfection with different p53 expression plasmids (WTp53 or mutp53); which protein was precipitated is not told.

B1: Drosha (enzyme, UniProt Q9NRR4 1-1374)
chain: MMQGNTCHRMSFHPGRGCPRGRGGHGARPSAPSFRPQNLRLLHPQQPPVQYQYEPPSAPSTTFSNSPAPNFLPPRPDFVPFPPPMPPSAQGPLPPCPIRPPFPNHQMRHPFPVPPCFPPMPPPMPCPNNPPVPGAPPGQGTFPFMMPPPSMPHPPPPPVMPQQVNYQYPPGYSHHNFPPPSFNSFQNNPSSFLPSANNSSSPHFRHLPPYPLPKAPSERRSPERLKHYDDHRHRDHSHGRGERHRSLDRRERGRSPDRRRQDSRYRSDYDRGRTPSRHRSYERSRERERERHRHRDNRRSPSLERSYKKEYKRSGRSYGLSVVPEPAGCTPELPGEIIKNTDSWAPPLEIVNHRSPSREKKRARWEEEKDRWSDNQSSGKDKNYTSIKEKEPEETMPDKNEEEEEELLKPVWIRCTHSENYYSSDPMDQVGDSTVVGTSRLRDLYDKFEEELGSRQEKAKAARPPWEPPKTKLDEDLESSSESECESDEDSTCSSSSDSEVFDVIAEIKRKKAHPDRLHDELWYNDPGQMNDGPLCKCSAKARRTGIRHSIYPGEEAIKPCRPMTNNAGRLFHYRITVSPPTNFLTDRPTVIEYDDHEYIFEGFSMFAHAPLTNIPLCKVIRFNIDYTIHFIEEMMPENFCVKGLELFSLFLFRDILELYDWNLKGPLFEDSPPCCPRFHFMPRFVRFLPDGGKEVLSMHQILLYLLRCSKALVPEEEIANMLQWEELEWQKYAEECKGMIVTNPGTKPSSVRIDQLDREQFNPDVITFPIIVHFGIRPAQLSYAGDPQYQKLWKSYVKLRHLLANSPKVKQTDKQKLAQREEALQKIRQKNTMRREVTVELSSQGFWKTGIRSDVCQHAMMLPVLTHHIRYHQCLMHLDKLIGYTFQDRCLLQLAMTHPSHHLNFGMNPDHARNSLSNCGIRQPKYGDRKVHHMHMRKKGINTLINIMSRLGQDDPTPSRINHNERLEFLGDAVVEFLTSVHLYYLFPSLEEGGLATYRTAIVQNQHLAMLAKKLELDRFMLYAHGPDLCRESDLRHAMANCFEALIGAVYLEGSLEEAKQLFGRLLFNDPDLREVWLNYPLHPLQLQEPNTDRQLIETSPVLQKLTEFEEAIGVIFTHVRLLARAFTLRTVGFNHLTLGHNQRMEFLGDSIMQLVATEYLFIHFPDHHEGHLTLLRSSLVNNRTQAKVAEELGMQEYAITNDKTKRPVALRTKTLADLLESFIAALYIDKDLEYVHTFMNVCFFPRLKEFILNQDWNDPKSQLQQCCLTLRTEGKEPDIPLYKTLQTVGPSHARTYTVAVYFKGERIGCGKGPSIQQAEMGAAMDALEKYNFPQMAHQKRFIERKYRQELKEMRWEREHQEREPDETEDIKK
On to B1, for which the binding result is listed as “binds”.
